Tested on: DIO-NASH mice
Experiment: Liver transcriptomic (RNAseq) analysis, 12 weeks in DIO-NASH mice (Example 3)
Type: in vivo
Settings: SEMA 0.3 nmol/kg/day
Method: Male C57BL/6JRj mice were fed with the AMLN diet 35 weeks prior to study start (DIO-NASH model). Mice with biopsy confirmed steatosis (score ≥2) and fibrosis (score ≥1) were randomized into treatment groups (n=12-14 per group). Mice received either vehicles, elafibranor (10 mg/kg/day, per os), semaglutide (0.3 nmol/kg/day, SC) or both elafibranor and semaglutide for 12 weeks. Suboptimal drug doses were used in this study. To avoid SEMA-induced hypophagia, an up-titration protocol was applied during the first 3 weeks of treatment.
On the last day of treatment, plasma samples were obtained after cardiac puncture blood sampling and mice were sacrificed. The liver was rapidly excised for histology and biochemical and transcriptomic analyses.
Total RNA was isolated from mice livers using Nucleospin® 96 RNA kit (Macherey Nagel) following manufacturer's instructions. Illumina NexSeq 500 sequencing technology was used to generate RNAseq data on the livers (n=5 per group). […] The parameters used are an end minimum quality level of 25 and a minimum read length of 50. The unaligned reads were aligned to the Mus musculus mm10 reference genome using the software STAR version 2.5.3. […] Briefly, the count matrix produced by FeatureCounts was analyzed by the DESeqDataSetFromMatrix( ) function followed by the DEseq( ) function from the DESeq2 library. […]

semaglutide: commercially available GLP-1 receptor agonist
number of genes differentially modulated in the liver (ELA 10 mg/kg/day, adjusted p<0.01, |fold change|>1.5 (FIG. 10A-B)): 55 genes | expression of lipid metabolism-related genes in the liver: only modestly affected

— patent US12458612B2, “Combination therapy comprising compounds of formula (I) and GLP-1 receptor agonists” (GENFIT, priority 2019, dated 2025)
